Some of the results follow. The main result of the screen is listed elsewhere. These columns were measured beside it and carry no call. Compounds called inactive in the main read-out are mostly missing here. The note in brackets gives the kind of curve behind each potency; many fits are weak.

A short description of the assay: qHTS Assay for Lipid Storage Modulators in Drosophila S3 Cells.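 On cell number change: cells counted by Cell Tracker Red CMTPX staining in the red channel.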 The note with it: BODIPY lipid droplet fluorescence, 18-24 h; for cell number change: measured here: cell count max response, cells fed with added oleic acid. Put shortly: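 Drosophila S3 cells loaded with oleic acid (400 uM, as added) and compounds at several concentrations; lipid droplets imaged by 488-nm laser-scanning cytometry, 500–530 nm intensity and object ratio to cell channel. Percent activity normalized to 20 uM Triacsin C.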

Where [1] appears, read: measured here: cell number channel AC50, cells fed with added oleic acid.
The mark [2] stands for this setting: measured here: lipid fluorescence (Fed channel) AC50, cells fed with added oleic acid.

Broadly, the AC50 is the midpoint of the concentration-response curve, whichever way the signal moves. Lower therefore signals activity at low concentration. Turning to `CC1CCC/C=C/C(=O)c2c(O)cc(O)cc2CC(=O)O1` (configuration not stated), the cell number change was -62.3%. Further, the AC50 under setting [1] is 32.6 µM [falling, single point].
For `COc1ccc(OC)c(Nc2nc(=O)c3cccnc3s2)c1`, the cell number change is -22.3%. In addition, the AC50 under setting [2] was 16.4 µM [falling, single point].
For `CN(c1ccccc1C(=O)Nc1ccc(S(=O)(=O)N2CCOCC2)cc1)S(=O)(=O)c1ccccc1`, the cell number change was -83.3%. Further, the AC50 under setting [1] is 29.1 µM [falling, partial curve, poor fit]. For the same molecule, the AC50 under setting [2] is 0.00461 µM [falling, full curve, poor fit].
In the case of `COC(=O)c1c(-c2cccc(C)c2)csc1N`, the cell number change was -27.2%. Also, the AC50 under setting [2] is 7.31 µM [rising, partial curve, poor fit].
As to `CCCN(CCC)S(=O)(=O)c1ccc(C(=O)Nc2nnc(-c3cc(OC)cc(OC)c3)o2)cc1`, the cell number change was -15.1%. Also, the AC50 under setting [1] was 4.11 µM [rising, partial curve].
With `Cc1nc2ccccc2c(=O)n1/N=C1\C(=O)N(C)c2ccccc21`, the cell number change is -9.47%. The AC50 under setting [2] is 0.92 µM [falling, full curve].
Turning to `CC1(C)Oc2ccc3ccc(=O)oc3c2/C(=C/N)C1=O`, the cell number change came to 10.4%. The AC50 under setting [2] was 29.1 µM [rising, single point].
Take `COc1ccccc1N1CC(C(=O)Nc2ccccc2N2CCCC2)CC1=O` (configuration not stated): the cell number change was -26%. Besides, under setting [1], the AC50 is 0.0461 µM [falling, full curve, poor fit].
With `CCN(CC)C(=O)c1sc(NC(=O)c2cccnc2)c(C(=O)OC)c1C`, the cell number change is -33.3%. Besides, the AC50 under setting [1] is 20.6 µM [falling, single point]. In addition, the AC50 under setting [2] was 20.6 µM [rising, partial curve].
On to `CCN1CCN(CCNC(=O)c2ccc3c(c2)NC(=O)/C(=C\c2ccc(OC)c(OC)c2)S3)CC1`, for which the cell number change worked out at 3.3%. For the same molecule, the AC50 under setting [2] is 29.1 µM [falling, single point].
On to `Cc1cc(C)c(OCC(=O)OCC(=O)NC2CCCCCCC2)c(C)c1`, for which, under setting [2], the AC50 is 29.1 µM [falling, single point].
Consider `Cc1ccccc1-n1nc2c(c1NC(=O)/C=C\c1ccc3c(c1)OCO3)CSC2`, for which the cell number change was found to be 4.9%. Also, the AC50 under setting [2] was 0.0651 µM [rising, full curve].
Consider `C/C(=N\NC(=O)c1cccc(N/N=C(\C)c2ccco2)c1)c1ccco1`, for which the AC50 was 0.58 µM [rising, full curve, poor fit] under setting [1] and 2.31 µM [rising, partial curve] under setting [2].
Take `CCN1CCN(C(=O)C2CCN(S(=O)(=O)c3cc(Cl)ccc3Cl)CC2)CC1`: the cell number change was -16.2%. The AC50 under setting [2] is 6.51 µM [falling, single point].
Turning to `COC(=O)c1cc2sc(Cl)cc2n1Cc1nc(-c2ccccc2)oc1C`, the cell number change amounted to 5.05%. Further, the AC50 under setting [2] was 0.00411 µM [rising, full curve, poor fit].
Consider `CC(=O)NC(CCS(C)(=O)=O)C(=O)Nc1cccc(C(C)=O)c1` (configuration not stated), for which the cell number change is -245%. The AC50 under setting [1] was 23.1 µM [falling, partial curve]. In addition, under setting [2], the AC50 was 18.4 µM [falling, partial curve].
As to `CCCC(=O)c1ccc(N2CCN(C(=O)c3ccccc3Br)CC2)c(F)c1`, the cell number change was -9.63%.
Consider `OC(CCCN1CCCCC1)(c1ccccc1)c1ccccc1`, for which, under setting [2], the AC50 was 0.103 µM [falling, full curve, poor fit].
Same read-out and setting: the result for `Cc1ccccc1NC(=O)CN(C)S(=O)(=O)c1ccc2c(c1)n(C)c(=O)c(=O)n2C` reads 10.3 µM [falling, partial curve].
Take `COc1cc(S(=O)(=O)N2CCOCC2)ccc1NC(=O)COC(=O)C12CC3CC(CC(C3)C1)C2`: the cell number change was -173%. Besides, the AC50 under setting [1] is 5.17 µM [falling, partial curve]. The AC50 under setting [2] is 5.17 µM [falling, partial curve].
With `CCN(CC)S(=O)(=O)c1ccc(C(=O)NC(C)(C)C)cc1`, the cell number change is 18.4%. In addition, under setting [2], the AC50 was 29.1 µM [rising, single point].
On to `CC1CCN(C(=O)c2ccc3c(c2NCCO)C(=O)c2ccccc2C3=O)CC1`, for which the cell number change is -38.2%. Moreover, the AC50 under setting [1] was 32.6 µM [falling, single point].
Consider `CC(C)(C)N(NS(=O)(=O)c1ccc(F)cc1)c1ccccc1`, for which the cell number change was -4.26%. Moreover, under setting [1], the AC50 is 3.26 µM [rising, single point].
Take `COc1ccccc1CNC(=O)C(=O)NCC1OCCCN1S(=O)(=O)c1cccs1` (configuration not stated): the cell number change is 24%. In addition, the AC50 under setting [2] was 20 µM [rising, single point].
Consider `COc1ccc(CC(=O)NCCS(=O)(=O)N2CCN(c3ccccc3OC)CC2)cc1`, for which the cell number change is -12.6%. Further, the AC50 under setting [2] is 6.51 µM [rising, single point].
On to `O=C(CN1C(=O)CSc2ccc(S(=O)(=O)N3CCOCC3)cc21)NCc1ccc(F)cc1`, for which the cell number change is 4.45%. Further, the AC50 under setting [2] was 0.00461 µM [rising, full curve, poor fit].
With `O=C1N=C(N2CCCC2)S/C1=C\c1cccc(Br)c1`, the cell number change is -38.6%. Also, under setting [1], the AC50 was 32.6 µM [falling, partial curve, poor fit].
On to `COC(=O)c1ccc(COc2ccccc2/C=N/NS(=O)(=O)c2ccc(C)cc2)cc1`, for which the cell number change is 94.4%. For the same molecule, the AC50 under setting [1] is 29.1 µM [rising, single point].
As to `CCOC(=O)C1=C(Cn2cnc3ccccc32)NC(=O)NC1c1ccc(Cl)cc1` (configuration not stated), the cell number change amounted to 14.7%.
In the case of `NC(=S)C1COc2ccccc2O1` (configuration not stated), the cell number change was -34.2%. The AC50 under setting [2] was 4.11 µM [falling, full curve].
Regarding `CC(Cc1cccs1)N(Cc1ccc(Cl)cc1)C(=O)c1ccncc1` (configuration not stated), the cell number change is -24.3%. Further, the half-maximal activity concentration (AC50) under setting [2] was 0.206 µM [falling, full curve].
Regarding `O=C(CCl)N(Cc1ccccc1)c1ccccc1`, the cell number change came out at 6%. In addition, the AC50 under setting [2] is 0.146 µM [falling, full curve, poor fit].
With `CCOc1ccc(-c2c(C(=O)N/N=C/c3ccc(C)s3)nnn2-c2nonc2N)cc1`, the cell number change stood at 7.16%. For the same molecule, the AC50 under setting [2] is 7.31 µM [falling, partial curve].
As for `CCOc1nc2cnccc2n(CC(=O)Nc2c(F)c(F)cc(F)c2F)c1=O`, under setting [2], the AC50 was 6.51 µM [rising, single point].
Turning to `O=C(COC(=O)c1cc(S(=O)(=O)N2CCCCC2)ccc1N1CCOCC1)NC1CCCCC1`, the cell number change was -30.7%. Under setting [1], the AC50 was 9.2 µM [falling, partial curve]. Further, under setting [2], the AC50 was 29.1 µM [rising, single point].
Turning to `CC1(C)CN(c2ccccc2)N(C(=O)c2ccc(F)cc2)C1=O`, the AC50 under setting [2] is 29.1 µM [rising, single point].
As for `CC1=C(C)C(O)N(Cc2ccccc2)C1=O` (configuration not stated), the cell number change turned out to be 0.275%. For the same molecule, under setting [2], the AC50 is 6.51 µM [rising, single point].
Consider `COc1ccc(NC(=O)CCNS(=O)(=O)c2ccc3c(c2)CC(C)N3C(C)=O)cc1` (configuration not stated), for which the cell number change is -1.98%. Besides, the AC50 under setting [2] is 29.1 µM [rising, single point].
For `O=S(=O)(Cc1ccccc1Cl)NCCc1ccc(F)cc1`, the cell number change was -41.3%. The AC50 under setting [1] was 9.2 µM [falling, partial curve].
Take `CCc1noc(C)c1C(=O)Nc1cc(C(F)(F)F)ccc1-n1cncn1`: the AC50 by setting is: under setting [1], 0.651 µM [rising, single point]; under setting [2], 0.731 µM [rising, single point].
As to `Cc1nc2ccccc2n1CC(O)COc1ccc(Br)cc1` (configuration not stated), the cell number change is -35%. Also, the AC50 under setting [1] is 29.1 µM [falling, single point]. Moreover, under setting [2], the AC50 is 1.3 µM [falling, partial curve].
Turning to `Cc1ccc(C(=O)Nc2cc3ccccc3oc2=O)cc1`, the cell number change was 14.8%.
In the case of `Cc1ccc2cc(CN(CC3CCCO3)S(=O)(=O)c3c(C)ccc4nsnc34)c(=O)[nH]c2c1` (configuration not stated), the cell number change was found to be 13.3%. Besides, the AC50 under setting [2] is 1.46 µM [rising, full curve].
For the molecule `CC1(c2ccc3ccccc3c2)NC(=O)N(CC(=O)N2CCCC(C(F)(F)F)C2)C1=O` (configuration not stated), the cell number change is -1.07%.
For `CCCOc1ccc(/C(O)=C2\C(=O)C(=O)N(c3ccccn3)C2c2ccccc2F)cc1C` (configuration not stated), the AC50 under setting [1] is 0.164 µM [falling, full curve, poor fit] and the AC50 under setting [2] was 0.58 µM [falling, single point].
Consider `O=C(Nc1ccc(N2CCOCC2)c(Cl)c1)c1cc(F)c(F)cc1Cl`, for which the cell number change was found to be 17%.
For the molecule `CC(C)(C)c1ccc(C(=O)N2CCN(C(=O)C3CCCCC3)CC2)cc1`, the cell number change was -2.37%. The AC50 under setting [2] was 0.259 µM [rising, full curve].
On to `Cc1cccc(/C(N)=N/OC(=O)c2ccc(F)cc2)c1`, for which the cell number change was 14%. Moreover, the AC50 under setting [2] was 32.6 µM [rising, single point].
Consider `COc1ccc(NC(=O)Cn2nnc(C(=O)NCc3ccc(C)cc3)c2N)cc1Cl`, for which the cell number change came out at 14.9%. Further, under setting [2], the AC50 was 16.4 µM [rising, single point].
For `COc1cccc(CNC(=O)CCC2CCCN(C(=O)c3cccc(Cl)c3)C2)c1` (configuration not stated), the cell number change is -34.8%. In addition, the AC50 under setting [1] is 29.1 µM [falling, single point].
Take `CC(C)(C)NC(=O)NC(=O)COC(=O)Cn1c(C(F)(F)F)nc2ccccc21`: the AC50 under setting [2] was 23.1 µM [falling, partial curve, poor fit].
Consider `c1ccc(-c2nnsc2-c2nc3ccccc3[nH]2)cc1`, for which the cell number change was -63%. For the same molecule, under setting [1], the concentration at half-maximal activity (AC50) is 32.6 µM [falling, partial curve, poor fit].
Consider `Cc1cc(C)cc(N2C(=O)N(c3ccccc3C)C3CS(=O)(=O)CC32)c1` (configuration not stated), for which the cell number change is 10.6%. Moreover, the AC50 under setting [2] was 6.51 µM [falling, single point].
For the molecule `Nc1nc(COc2ccc3ccccc3c2)cs1`, the cell number change was -38.2%. Under setting [1], the AC50 was 3.26 µM [falling, full curve]. The AC50 under setting [2] is 2.59 µM [falling, full curve, poor fit].
As for `CN1CCN(c2c(F)cc3c(=O)c(C(=O)O)cn4c3c2OCN4C)CC1`, the cell number change is -8.65%.
The same measure, in the same setting: with `COc1ccc(OCC(=O)N2CCN(C(=O)c3cccc4ccccc34)CC2)cc1` the figure was -12.5%.
In the case of `O=C(Nc1ccccn1)Nc1cccs1`, the AC50 reads like this: under setting [1], 0.231 µM [rising, partial curve, poor fit]; under setting [2], 11.6 µM [rising, partial curve, poor fit].
In the case of `O=C(NCC1CCCN(Cc2cccc(F)c2)C1)c1cccc2ccccc12` (configuration not stated), the cell number change was -18.9%. Moreover, the AC50 under setting [2] was 23.1 µM [falling, single point].
In the case of `O=C(NCc1ccccc1)c1cc[n+]([O-])cc1`, the cell number change was determined as 9.93%. Moreover, under setting [2], the AC50 was 6.51 µM [rising, full curve].

The record behind these values is PubChem BioAssay AID2685 (National Center for Advancing Translational Sciences (NCATS), 2010).
